Here are results for 1 substance from article PMC2835651.

Results are given in words; binding and its absence hold for the method and conditions named.

The test deals with prototype foamy virus (PFV) PR-RT (prototype foamy virus (PFV)) (UniProt P14350). Put plainly: SEC; Superdex 200 HR 10/30 calibrated with catalase, aldolase, ovalbumine and chymotrypsinogen; 0.5 ml/min; 10 nmol PFV PR-RT in 50 mM Na2HPO4/NaH2PO4 pH 7.4, 300 mM NaCl, 0.5 mM DTT; both purified.

For the substance “prototype foamy virus (PFV) PR-RT (from UniProt P14350 1-751) (enzyme)”, the binding result is on record as “no binding (tested: 10 nmol loaded)”.
